The values below come from publication PMC9525061.

Protein sequences, listed by entry. Tags and fused reporters are not part of them. Residues count along the entry.
UniProt O22476, residues 24-1196: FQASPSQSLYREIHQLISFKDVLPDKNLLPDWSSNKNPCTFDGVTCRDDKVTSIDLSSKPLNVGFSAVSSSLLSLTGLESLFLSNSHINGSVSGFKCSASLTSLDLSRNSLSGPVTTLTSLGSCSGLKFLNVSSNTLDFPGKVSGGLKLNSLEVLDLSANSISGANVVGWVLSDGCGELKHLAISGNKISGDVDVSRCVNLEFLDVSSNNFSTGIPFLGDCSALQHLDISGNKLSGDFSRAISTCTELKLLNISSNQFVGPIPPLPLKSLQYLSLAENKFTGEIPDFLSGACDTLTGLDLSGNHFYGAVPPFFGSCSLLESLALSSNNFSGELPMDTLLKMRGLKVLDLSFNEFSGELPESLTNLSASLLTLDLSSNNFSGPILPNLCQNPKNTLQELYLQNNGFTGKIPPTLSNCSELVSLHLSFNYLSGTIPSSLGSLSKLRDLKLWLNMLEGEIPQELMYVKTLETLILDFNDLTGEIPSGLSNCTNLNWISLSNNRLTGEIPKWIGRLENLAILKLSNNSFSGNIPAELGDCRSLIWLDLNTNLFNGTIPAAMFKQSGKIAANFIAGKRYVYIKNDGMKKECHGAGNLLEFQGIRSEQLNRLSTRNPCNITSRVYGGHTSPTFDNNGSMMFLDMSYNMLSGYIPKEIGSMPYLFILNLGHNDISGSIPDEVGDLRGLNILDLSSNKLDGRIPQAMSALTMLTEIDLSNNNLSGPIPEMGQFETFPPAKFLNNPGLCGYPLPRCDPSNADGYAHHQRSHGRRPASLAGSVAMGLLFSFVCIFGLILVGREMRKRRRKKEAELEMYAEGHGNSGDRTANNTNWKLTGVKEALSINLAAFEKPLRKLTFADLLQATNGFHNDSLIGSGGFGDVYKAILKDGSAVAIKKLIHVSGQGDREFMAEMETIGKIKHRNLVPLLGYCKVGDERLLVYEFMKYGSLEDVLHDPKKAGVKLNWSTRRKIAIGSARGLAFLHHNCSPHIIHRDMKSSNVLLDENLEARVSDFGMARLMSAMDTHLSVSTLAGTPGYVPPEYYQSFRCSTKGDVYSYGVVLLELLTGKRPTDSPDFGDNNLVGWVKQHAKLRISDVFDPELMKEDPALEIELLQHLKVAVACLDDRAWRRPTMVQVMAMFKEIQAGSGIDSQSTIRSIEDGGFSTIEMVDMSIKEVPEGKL

No constants are given. Whether binding was seen depends on the method and setting. For some of these results: Binding seen in cells or lysates may run through a third protein. Some entries that bind do so weakly or less than the wild type. Tags and fused reporters may be left off the sequences shown.

The target in test [1] is T1, CNGC10-GFP (donor fusion for FRET-FLIM) (Arabidopsis thaliana) (UniProt Q9LNJ0).
T1 sequence: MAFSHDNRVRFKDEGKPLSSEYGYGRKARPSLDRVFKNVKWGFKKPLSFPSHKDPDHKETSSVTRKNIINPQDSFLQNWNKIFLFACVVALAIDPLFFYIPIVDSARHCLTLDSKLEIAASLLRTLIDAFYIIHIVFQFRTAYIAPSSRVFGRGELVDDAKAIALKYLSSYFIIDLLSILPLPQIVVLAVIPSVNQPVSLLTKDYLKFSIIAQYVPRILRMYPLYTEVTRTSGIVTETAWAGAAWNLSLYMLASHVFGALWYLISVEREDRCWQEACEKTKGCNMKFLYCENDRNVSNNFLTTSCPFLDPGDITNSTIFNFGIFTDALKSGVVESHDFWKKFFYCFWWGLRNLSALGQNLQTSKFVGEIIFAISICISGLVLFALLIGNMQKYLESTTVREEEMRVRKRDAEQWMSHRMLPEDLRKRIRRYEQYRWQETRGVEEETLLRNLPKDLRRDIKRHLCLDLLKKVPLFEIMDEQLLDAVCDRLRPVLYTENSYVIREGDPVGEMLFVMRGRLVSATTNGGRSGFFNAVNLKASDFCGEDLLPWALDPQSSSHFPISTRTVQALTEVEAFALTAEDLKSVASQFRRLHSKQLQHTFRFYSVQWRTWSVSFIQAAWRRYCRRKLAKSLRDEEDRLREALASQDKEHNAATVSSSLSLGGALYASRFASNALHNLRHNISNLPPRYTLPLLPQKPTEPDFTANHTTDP
The test can be described thus: FRET or BRET; FRET-FLIM; CNGC10-GFP donor with RFP or mCherry acceptor fusions in transiently transformed Nicotiana benthamiana epidermal leaf cells, 2-3 days after infiltration; reduction of the GFP fluorescence lifetime.

For test [2], the target named is T2, CNGC10 (cyclic nucleotide-gated ion channel 10), Cub fusion for the mating-based split-ubiquitin system (Arabidopsis thaliana) (UniProt Q9LNJ0).
T2 sequence: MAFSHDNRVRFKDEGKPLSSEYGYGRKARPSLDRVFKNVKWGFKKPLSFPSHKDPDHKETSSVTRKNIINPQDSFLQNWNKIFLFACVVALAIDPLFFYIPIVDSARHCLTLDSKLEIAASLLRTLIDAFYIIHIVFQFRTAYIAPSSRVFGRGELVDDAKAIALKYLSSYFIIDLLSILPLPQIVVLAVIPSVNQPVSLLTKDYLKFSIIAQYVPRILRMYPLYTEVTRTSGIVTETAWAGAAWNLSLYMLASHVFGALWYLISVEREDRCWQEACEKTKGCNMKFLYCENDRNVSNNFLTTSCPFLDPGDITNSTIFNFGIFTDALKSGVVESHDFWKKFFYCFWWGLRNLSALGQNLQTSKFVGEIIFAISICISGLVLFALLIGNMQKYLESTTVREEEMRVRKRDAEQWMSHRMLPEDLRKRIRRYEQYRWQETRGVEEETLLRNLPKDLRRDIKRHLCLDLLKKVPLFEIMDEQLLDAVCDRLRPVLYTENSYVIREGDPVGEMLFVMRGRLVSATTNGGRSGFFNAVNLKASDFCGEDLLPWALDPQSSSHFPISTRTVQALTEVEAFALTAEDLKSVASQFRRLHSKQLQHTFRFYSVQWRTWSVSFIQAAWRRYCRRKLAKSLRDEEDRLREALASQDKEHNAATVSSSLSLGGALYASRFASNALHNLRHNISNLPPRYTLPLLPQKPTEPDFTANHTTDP
The test can be described thus: two-hybrid; yeast mating-based split-ubiquitin system (mbSUS); Cub (pMetYC) and Nub (pXNubA22) fusions; growth on interaction selective plates (CSM -Leu -Trp -Ura -Met, -Ade, -His) with 5 µM and 500 µM methionine, 72 hr at 28 °C.

Regarding “BRI1, RFP or mCherry acceptor fusion for FRET-FLIM (from UniProt O22476 24-1196) (receptor)”, the binding result in test [1] is listed as “binds”.

B1: BAK1 (BRI1-activating kinase 1), fusion for the mating-based split-ubiquitin system (receptor, UniProt Q94F62 26-615)
chain: NAEGDALSALKNSLADPNKVLQSWDATLVTPCTWFHVTCNSDNSVTRVDLGNANLSGQLVMQLGQLPNLQYLELYSNNITGTIPEQLGNLTELVSLDLYLNNLSGPIPSTLGRLKKLRFLRLNNNSLSGEIPRSLTAVLTLQVLDLSNNPLTGDIPVNGSFSLFTPISFANTKLTPLPASPPPPISPTPPSPAGSNRITGAIAGGVAAGAALLFAVPAIALAWWRRKKPQDHFFDVPAEEDPEVHLGQLKRFSLRELQVASDNFSNKNILGRGGFGKVYKGRLADGTLVAVKRLKEERTQGGELQFQTEVEMISMAVHRNLLRLRGFCMTPTERLLVYPYMANGSVASCLRERPESQPPLDWPKRQRIALGSARGLAYLHDHCDPKIIHRDVKAANILLDEEFEAVVGDFGLAKLMDYKDTHVTTAVRGTIGHIAPEYLSTGKSSEKTDVFGYGVMLLELITGQRAFDLARLANDDDVMLLDWVKGLLKEKKLEALVDVDLQGNYKDEEVEQLIQVALLCTQSSPMERPKMSEVVRMLEGDGLAERWEEWQKEEMFRQDFNYPTHHPAVSGWIIGDSTSQIENEYPSGPR
Take B1: in test [2], the binding result is “binds”.

B2: BAK1, RFP or mCherry acceptor fusion for FRET-FLIM (receptor, UniProt Q94F62 26-615)
chain: NAEGDALSALKNSLADPNKVLQSWDATLVTPCTWFHVTCNSDNSVTRVDLGNANLSGQLVMQLGQLPNLQYLELYSNNITGTIPEQLGNLTELVSLDLYLNNLSGPIPSTLGRLKKLRFLRLNNNSLSGEIPRSLTAVLTLQVLDLSNNPLTGDIPVNGSFSLFTPISFANTKLTPLPASPPPPISPTPPSPAGSNRITGAIAGGVAAGAALLFAVPAIALAWWRRKKPQDHFFDVPAEEDPEVHLGQLKRFSLRELQVASDNFSNKNILGRGGFGKVYKGRLADGTLVAVKRLKEERTQGGELQFQTEVEMISMAVHRNLLRLRGFCMTPTERLLVYPYMANGSVASCLRERPESQPPLDWPKRQRIALGSARGLAYLHDHCDPKIIHRDVKAANILLDEEFEAVVGDFGLAKLMDYKDTHVTTAVRGTIGHIAPEYLSTGKSSEKTDVFGYGVMLLELITGQRAFDLARLANDDDVMLLDWVKGLLKEKKLEALVDVDLQGNYKDEEVEQLIQVALLCTQSSPMERPKMSEVVRMLEGDGLAERWEEWQKEEMFRQDFNYPTHHPAVSGWIIGDSTSQIENEYPSGPR
For the molecule B2, the binding result in test [1] is reported as “binds”.

B3: CNGC10 (cyclic nucleotide-gated ion channel 10), Cub fusion for the mating-based split-ubiquitin system (protein, UniProt Q9LNJ0 1-711)
chain: MAFSHDNRVRFKDEGKPLSSEYGYGRKARPSLDRVFKNVKWGFKKPLSFPSHKDPDHKETSSVTRKNIINPQDSFLQNWNKIFLFACVVALAIDPLFFYIPIVDSARHCLTLDSKLEIAASLLRTLIDAFYIIHIVFQFRTAYIAPSSRVFGRGELVDDAKAIALKYLSSYFIIDLLSILPLPQIVVLAVIPSVNQPVSLLTKDYLKFSIIAQYVPRILRMYPLYTEVTRTSGIVTETAWAGAAWNLSLYMLASHVFGALWYLISVEREDRCWQEACEKTKGCNMKFLYCENDRNVSNNFLTTSCPFLDPGDITNSTIFNFGIFTDALKSGVVESHDFWKKFFYCFWWGLRNLSALGQNLQTSKFVGEIIFAISICISGLVLFALLIGNMQKYLESTTVREEEMRVRKRDAEQWMSHRMLPEDLRKRIRRYEQYRWQETRGVEEETLLRNLPKDLRRDIKRHLCLDLLKKVPLFEIMDEQLLDAVCDRLRPVLYTENSYVIREGDPVGEMLFVMRGRLVSATTNGGRSGFFNAVNLKASDFCGEDLLPWALDPQSSSHFPISTRTVQALTEVEAFALTAEDLKSVASQFRRLHSKQLQHTFRFYSVQWRTWSVSFIQAAWRRYCRRKLAKSLRDEEDRLREALASQDKEHNAATVSSSLSLGGALYASRFASNALHNLRHNISNLPPRYTLPLLPQKPTEPDFTANHTTDP
B3: the binding result in test [2] is on record as “binds”.
